# According to PubChem BioAssay AID2685 (National Center for Advancing Translational Sciences (NCATS), 2010):
# The list shows a part of the results. These are further read-outs of the screen, such as a control signal, another cell line or another target. No call is given for them. The list favours compounds with an active or inconclusive main result. Words in brackets tell the shape of the fitted curve; partial curves, single points and poor fits give uncertain potencies.
# Experiment: qHTS Assay for Lipid Storage Modulators in Drosophila S3 Cells;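 on cell number change: cells counted by Cell Tracker Red CMTPX staining in the red channel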
# Conditions: BODIPY lipid droplet fluorescence, 18-24 h; for cell number change: measured here: cell count max response, cells fed with added oleic acid
# Procedure, shortened: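 Laser-scanning cytometry quantifies lipid droplet accumulation (500–530 nm total intensity; droplet/cell object ratio) in oleic acid-fed (400 uM added) Drosophila S3 cells treated with a concentration series. 20 uM Triacsin C defined 100% inhibition.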
# [1] = measured here: lipid fluorescence (Fed channel) AC50, cells fed with added oleic acid
# [2] = measured here: cell number channel AC50, cells fed with added oleic acid
Compound,cell number change [%],AC50 [1],AC50 [2]
CC(C)CCN1CCC(N)=NC1=O,39.4,"29.1 µM [rising, single point]",–
O=C(Nc1ccc(Cl)cc1)c1ccncc1,-5.99,–,"0.731 µM [rising, single point]"
COCC(=O)n1nc(-c2ccccc2)nc1NCc1cccs1,21.1,"0.0116 µM [rising, full curve]","0.13 µM [rising, full curve, poor fit]"
Cc1cccc(NC(=O)CN2CCN(CC(=O)NCc3ccc(Cl)cc3Cl)CC2)c1C,15.6,–,–
O=C(NCC1CCCO1)c1ccc(CS(=O)(=O)c2ccc(Cl)cc2)o1 (centres undefined),19.9,–,–
Cc1sc2ncnc(NC(C)C(=O)O)c2c1C (centres undefined),–,"29.1 µM [rising, single point]",–
O=C(CS(=O)(=O)c1ccccc1)N1CCCCCC1,–,"29.1 µM [falling, single point]",–
Cc1ccc(S(=O)(=O)c2c(COC(=O)c3cccc(Cl)c3)c(-c3ccccc3)nn2C)cc1,–,"4.61 µM [rising, partial curve]","3.26 µM [rising, partial curve]"
CCOC(=O)C1=C(COC(=O)/C=C/c2ccc(OC)c(OC)c2)NC(=O)NC1C (centres undefined),–,"1.46 µM [falling, partial curve, poor fit]","2.06 µM [rising, partial curve]"
Clc1cccc(/C=N/Nc2ncnc3ccccc23)c1,-37.2,–,"6.51 µM [falling, single point]"
COc1cccc(NC(=O)c2ocnc2C)c1,-8.71,"0.13 µM [falling, full curve, poor fit]",–
COc1ccc(N2CC(C(=O)Nc3ccccc3C(=O)NC3CC3)CC2=O)cc1 (centres undefined),-20.8,"29.1 µM [rising, single point]",–
Cc1cc(C)n(-c2cc(N3CCN(C(=O)c4cccc(F)c4)CC3)ccc2[N+](=O)[O-])n1,-45.9,"10.3 µM [falling, partial curve, poor fit]","14.6 µM [falling, partial curve, poor fit]"
CCC1(CC)NC(=O)N(CC(=O)OCC(=O)Nc2ccccc2OC(F)F)C1=O,7.29,"0.326 µM [rising, partial curve, poor fit]",–
O=C(c1ccc(N2CCOCC2)cc1)c1cccs1,–,"0.58 µM [rising, single point]","3.66 µM [rising, partial curve]"
CC(C)CNS(=O)(=O)c1ccc(CCC(=O)N2CCN(Cc3ccc4c(c3)OCO4)CC2)cc1,-33.7,"14.6 µM [falling, partial curve, poor fit]","8.2 µM [falling, partial curve, poor fit]"
CN1CCCC(OC(=O)c2ccc(C#N)cc2)C1 (centres undefined),-2.01,–,–
O=C(Nc1ccc(-c2noc(COc3ccccc3Cl)n2)cc1)c1ccco1,-55.5,"29.1 µM [falling, single point]","29.1 µM [falling, single point]"
COc1cc(OC)cc(OC(=O)C2CCN(C(=O)c3ccc(F)cc3)CC2)c1,-46.7,"3.66 µM [falling, partial curve, poor fit]","36.6 µM [falling, single point]"

# 4 entries drawn at random from the list so far, as already listed:
Compound,cell number change [%],AC50 [1],AC50 [2]
COCC(=O)n1nc(-c2ccccc2)nc1NCc1cccs1,21.1,"0.0116 µM [rising, full curve]","0.13 µM [rising, full curve, poor fit]"
O=C(CS(=O)(=O)c1ccccc1)N1CCCCCC1,–,"29.1 µM [falling, single point]",–
CCC1(CC)NC(=O)N(CC(=O)OCC(=O)Nc2ccccc2OC(F)F)C1=O,7.29,"0.326 µM [rising, partial curve, poor fit]",–
Cc1ccc(S(=O)(=O)c2c(COC(=O)c3cccc(Cl)c3)c(-c3ccccc3)nn2C)cc1,–,"4.61 µM [rising, partial curve]","3.26 µM [rising, partial curve]"

# Next entries follow:

Compound,cell number change [%],AC50 [1],AC50 [2]
Cc1ccc(NC(=O)c2ccc3nccnc3c2)c(C)c1,-4.58,–,–
O=C(NNC(=O)C12CC3CC(CC(Cl)(C3)C1)C2)c1ccncc1,-8,"6.51 µM [rising, single point]",–
Nc1ccccc1SSc1ccccc1N,-70,"9.2 µM [falling, partial curve]","16.4 µM [falling, single point]"
CCc1nnc(NC(=O)c2nc(S(=O)(=O)Cc3ccc(C)cc3)ncc2Cl)s1,-32.3,"5.8 µM [falling, full curve]","2.06 µM [falling, full curve, poor fit]"
C=CC[N+](C)(C)CCCNC(=O)/C=N/O,-5.43,–,–
COc1ccc(-n2cnnc2SCc2ncc(-c3ccccc3)o2)cc1,-4.38,–,–
COc1cc(C(=O)NCC(=O)NCCN2C(=O)S/C(=C\c3ccc4c(c3)OCO4)C2=O)cc(OC)c1OC,-42.9,"16.4 µM [falling, partial curve]","9.2 µM [falling, partial curve]"
COc1ccc(NC(=O)c2cccc(NC(=O)c3ccco3)c2)c(OC)c1,3.71,"2.91 µM [rising, partial curve]","0.206 µM [rising, full curve, poor fit]"
COC(=O)c1ccc(CSc2nc(-c3ccco3)cc(C(F)(F)F)n2)o1,-32.8,–,"32.6 µM [falling, single point]"
Cc1ccccc1CC(=O)NCC1CCCCC1,1.65,"29.1 µM [rising, single point]",–
O=C1CN(C(=O)NCC(=O)N[C@@H](Cc2ccccc2)C(=O)O)c2ccccc2N1,41.7,–,"23.1 µM [rising, partial curve, poor fit]"
CCOc1ccccc1N1CCN(c2ncnc3scc(-c4ccc(OC)cc4)c23)CC1,-7.75,"3.16 µM [rising, single point]",–
CCOC(=O)c1sc(NC(=O)CCN2CCOCC2)c(C(=O)OCC)c1C,-7.24,"2.31 µM [rising, single point]",–
CCOC(=O)c1c(C)[nH]c(C(=O)C(C)OC(=O)c2oc3ccccc3c2COC)c1C (centres undefined),78.6,–,"13 µM [rising, partial curve]"
Cc1nnc(SCC(=O)N2CCc3ccccc3C2)n1-c1ccccc1,-4.66,"1.64 µM [falling, partial curve]",–
CN(Cc1ccccc1)C(=S)NC(=O)c1ccc(-c2ccccc2)cc1,-15.7,"18.4 µM [falling, single point]",–
CCn1c2ccccc2c2cc(NC(=O)c3cccc([N+](=O)[O-])c3)ccc21,7.42,–,–
COc1cc(C2C(C#N)=C(N)N(Nc3ccccc3)C3=C2C(=O)CC(C)(C)C3)ccc1OCc1ccccc1 (centres undefined),-21.3,"29.1 µM [falling, single point]","0.0231 µM [rising, single point]"
COc1cccc2c1N1C(=O)c3c(C(=O)O)cccc3C1CC2(C)C (centres undefined),-7.1,"0.00461 µM [falling, full curve, poor fit]",–

Compound,cell number change [%],AC50 [1],AC50 [2]
COC(=O)COc1ccc(/C=C2\SC(=O)N(CC(=O)Nc3ccccc3F)C2=O)cc1,29.6,"3.66 µM [rising, full curve]",–
COc1ccc(-n2nc(C(=O)NCC(=O)N3CCN(c4ccccc4)CC3)c3ccccc3c2=O)c(OC)c1,11.7,–,–
O=C(CCNC(=O)c1ccccc1Cl)Nc1nc2ccc(F)cc2s1,-25.8,–,–
CC(O)CSc1nc2c(c(=O)[nH]c(=O)n2C)n1Cc1ccccc1 (centres undefined),-1.05,"29.1 µM [rising, single point]",–
S=c1[nH]nc(C2CCCCC2)n1/N=C/c1ccccc1Cl,-50.4,"29.1 µM [falling, single point]","18.4 µM [falling, single point]"
CCOC(=O)c1coc(CNC(=O)c2c(C)oc3c2CCCC3)c1,57.8,"14.6 µM [rising, partial curve]","3.26 µM [rising, partial curve]"
COCCNC(=S)N=Nc1c(O)[nH]c2c(C)cc(C)cc12,84.5,"23.1 µM [rising, single point]","1.46 µM [rising, full curve]"
COc1cc(S(=O)(=O)NCCOC23CC4CC(CC(C4)C2)C3)c(OC)cc1Cl,-1.66,–,–
CCc1c(C)nc(SCC(=O)CC(=O)OC(C)C)c(C#N)c1C,32.4,"29.1 µM [rising, single point]",–
Cc1ccc(CNC(=O)CC2(CC3=NS(=O)(=O)c4ccccc4N3)CCCC2)cc1,18.6,"18.4 µM [falling, single point]",–
Cc1ccc(C)c(NC(=S)c2nc3ccccc3s2)c1,-43.2,"29.1 µM [falling, single point]","23.1 µM [falling, single point]"
COc1ccc(Cl)cc1C(=O)Nn1cnnc1,–,"6.51 µM [rising, single point]",–
Nc1nc(SCC(=O)N2CCN(S(=O)(=O)c3ccc(Cl)cc3)CC2)n[nH]1,103,–,"0.00731 µM [rising, full curve, poor fit]"
COc1cc(SC)ccc1C(=O)NC1CCCCC1,–,"20.6 µM [falling, partial curve]","0.00461 µM [falling, full curve, poor fit]"
COc1ccc(N(C)S(=O)(=O)c2cccc(C(=O)Nc3nc(C)c(C(C)=O)s3)c2)cc1,–,"0.0291 µM [falling, full curve, poor fit]",–
Cc1ccc(NC(=O)CSc2nnnn2-c2ccc3c(c2)OCO3)cc1C,-45.4,"14.6 µM [falling, partial curve]","9.2 µM [falling, partial curve]"
CCOC(=O)C1=NN(c2ccccc2C)C2=NC(C)=C(C(=O)OC)C(c3cccc(OC)c3)N12 (centres undefined),-9.7,"2.31 µM [rising, partial curve]",–
COc1cccc(C(=O)COC(=O)c2n[nH]c(=O)c3ccccc23)c1,65,"20.6 µM [rising, partial curve]","14.6 µM [rising, partial curve]"
